Measurements published in paper doi:10.1101/2023.06.06.543836.
Results are given in words; binding and its absence hold for the method and conditions named. Binding seen in cells or lysates may run through a third protein. Some binding calls cover weakened binding; strength is not graded here.

Chains of the proteins cited; added tags and fusions are not shown. Residues count along the entry.
UniProt P70658: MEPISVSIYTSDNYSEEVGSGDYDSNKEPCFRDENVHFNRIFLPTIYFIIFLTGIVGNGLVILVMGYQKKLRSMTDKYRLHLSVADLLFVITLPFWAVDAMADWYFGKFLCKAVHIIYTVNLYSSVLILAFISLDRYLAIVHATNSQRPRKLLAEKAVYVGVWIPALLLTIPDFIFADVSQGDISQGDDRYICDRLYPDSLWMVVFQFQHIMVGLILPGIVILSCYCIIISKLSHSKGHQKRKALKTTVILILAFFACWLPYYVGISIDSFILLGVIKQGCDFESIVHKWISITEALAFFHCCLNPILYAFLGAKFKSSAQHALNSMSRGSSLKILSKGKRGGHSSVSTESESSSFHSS
UniProt P40224, residues 22-93: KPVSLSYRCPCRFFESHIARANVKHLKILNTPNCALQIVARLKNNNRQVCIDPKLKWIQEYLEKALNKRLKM
UniProt P63158: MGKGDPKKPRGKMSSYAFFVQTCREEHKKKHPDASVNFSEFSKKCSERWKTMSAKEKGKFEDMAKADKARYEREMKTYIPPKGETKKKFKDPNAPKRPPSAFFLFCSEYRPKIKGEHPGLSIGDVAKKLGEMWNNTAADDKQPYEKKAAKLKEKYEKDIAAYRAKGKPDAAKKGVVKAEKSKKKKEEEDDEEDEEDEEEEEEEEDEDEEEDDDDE

Experiments:
[1] = molecular target: CXCR4 receptor on AB1 cells (mouse (endogenous in AB1)) (UniProt P70658); assay: proximity ligation
[2] = molecular target: CXCL12 on the surface of AB1 cells (mouse (endogenous in AB1)) (UniProt P40224); assay: proximity ligation

Substance	binding [1]	binding [2]
HMGB1•CXCL12 heterocomplex on the surface of AB1 cells (from UniProt P63158 1-215; P40224 22-93)	binds	
HMGB1 on the surface of AB1 cells (from UniProt P63158 1-215)		binds
